The record followed here is patent US10052340B2 (XIAMEN UNIVERSITY, priority 2012, dated 2018).

The data set deals with KK-Ay mice. Briefly: Mouse trial, KK-Ay diabetes and obesity model mice fed with high-fat diet. The format is in vivo. The following applies: i.p. daily 14 days, ivermectin/derivatives 1.3 mg/kg, GW4064 30 mg/kg. The source says:
In order to detect the efficacy of abamectin/avermectin, ivermectin and the derivative doramectin in the body of a diabetes and obesity mouse model, we choose diabetes and obesity mouse model mice, KK-Ay mice, as the experimental subject.

Take `CC[C@H](C)[C@H]1O[C@]2(CC[C@@H]1C)C[C@@H]1C[C@@H](C/C=C(\C)C(O[C@H]3C[C@H](OC)C(O[C@H]4C[C@H](OC)[C@@H](O)[C@H](C)O4)[C@H](C)O3)[C@@H](C)/C=C/C=C3\CO[C@@H]4[C@H](O)C(C)=CC(C(=O)O1)[C@]34O)O2` (stereo partly shown) [ivermectin]: the food intake result was “not affected”.

In the case of `CC(C)c1onc(-c2c(Cl)cccc2Cl)c1COc1ccc(/C=C/c2cccc(C(=O)O)c2)c(Cl)c1` [GW4064], the food intake result is “not affected”.

For `CCC(C)[C@H]1O[C@]2(C=C[C@@H]1C)C[C@@H]1C[C@@H](C/C=C(\C)[C@@H](O[C@H]3C[C@H](OC)[C@@H](O[C@H]4C[C@@H](OC)[C@H](O)[C@@H](C)O4)[C@H](C)O3)[C@@H](C)/C=C/C=C3\CO[C@@H]4[C@H](O)C(C)=C[C@@H](C(=O)O1)[C@]34O)O2` (stereo partly shown) [abamectin/avermectin], the food intake entry was “not affected”.

Regarding `CO[C@H]1C[C@H](O[C@H]2[C@H](C)O[C@@H](O[C@@H]3/C(C)=C/C[C@@H]4C[C@@H](C[C@]5(C=C[C@H](C)[C@@H](C6CCCCC6)O5)O4)OC(=O)[C@@H]4C=C(C)[C@@H](O)[C@H]5OC/C(=C\C=C\[C@@H]3C)[C@]54O)C[C@@H]2OC)O[C@@H](C)[C@@H]1O` [doramectin], the food intake entry is “not affected”.
